At least one compound was matched to its structure with a doubt left.
Legend:
neointimal hyperplasia = experiment: Porcine studies with rapamycin-coated stents; type: in vivo; details: porcine and rabbit models, nonerodible polymeric stent coating, 35-430 ug/5-18 mm coronary stent, maximal at about 28-30 days
[1] = Drug concentration in liquid formulations by liquid chromatography / HPLC; type: physicochemical
Protocol: Table 8, shown below, summarizes the concentrations of the excipient, the co-solvents and the drug for four different liquid formulations in accordance with exemplary embodiments of the present invention.
As set forth above, a liquid formulation comprising 4 mg/ml of sirolimus may be achieved utilizing PEG 200 as the excipient and ethanol and water as the co-solvents. […] The high concentration of sirolimus is necessary to maintain an effective and high local concentration of sirolimus after delivery to the site. The liquid formulations are flowable at room temperature and are compatible with a number of delivery devices. Specifically, each of these formulations were successfully injected through an infusion catheter designated by the brand name CRESCENDO™ from Cordis Corporation, Miami, Fla., as described in more detail subsequently, and the EndoBionics Micro Syringe™ Infusion Catheter available from EndoBionics, Inc., San Leandros, Calif., as described in more detail above, in porcine studies.
In another exemplary embodiment, the liquid formulation of sirolimus comprises water and ethanol as co-solvents and Vitamin E TPGS as the excipient. The liquid formulation was created utilizing the following process. Two hundred milligrams of sirolimus and two grams of ethanol were added to a pre-weighed twenty milliliter scintillation vial. The vial was vortexed and sonicated until the sirolimus was completely dissolved. Approximately six hundred milligrams of Vitamin E TPGS was then added to the solution of ethanol and sirolimus. The vial was vortexed again until a clear yellowish solution was obtained. Nitrogen gas was then used to reduce the amount of ethanol in the vial to approximately two hundred twenty-nine milligrams. In a separate vial, three hundred milligrams of Vitamin E TPGS was dissolved in eleven milliliters of purified water while undergoing vortexing. The Vitamin E TPGS and water solution was then added to the first vial containing the sirolimus, Vitamin E TPGS and ethanol. The first vial was then vortexed vigorously and continuously for three minutes. […]

[2] = tested on: monocyte chemotactic protein (MCP-1); experiment: Cytokine levels in vascular tissue after stent delivery; type: in vivo; details: delivered from a stent

CO[C@H]1C[C@@H]2CC[C@@H](C)[C@@](O)(O2)C(=O)C(=O)N2CCCC[C@H]2C(=O)O[C@H]([C@H](C)C[C@@H]2CC[C@@H](O)[C@H](OC)C2)CC(=O)[C@H](C)/C=C(\C)[C@@H](O)[C@@H](OC)C(=O)[C@H](C)C[C@H](C)/C=C/C=C/C=C/1C [rapamycin]
peak reduction in neointimal hyperplasia (neointimal hyperplasia): fifty to fifty-five
dilution with water at which precipitation starts ([1]; 4 mg/ml formulation with PEG 200): does not start to precipitate out of solution until diluted five to ten fold with water
concentration in the final solution (HPLC assay) ([1]; ethanol (less than two percent), Vitamin E TPGS and water): 15000 µg/mL
Sirolimus conc. ([1]; second block, second column: EtOH 2.0 %, H2O 25 %, PEG 200 75 %): 4 mg/mL
monocyte chemotactic protein (MCP-1) levels in the vascular wall [2]: highly effective in reducing monocyte chemotactic protein (MCP-1) levels
